Our source for the binding values is article PMC9586327.

Protein sequences, listed by entry. Tags and fused reporters are not part of them. Lines headed by an entry give the natural chain unless they say otherwise; changes in a name come on top.
UniProt Q8CC35: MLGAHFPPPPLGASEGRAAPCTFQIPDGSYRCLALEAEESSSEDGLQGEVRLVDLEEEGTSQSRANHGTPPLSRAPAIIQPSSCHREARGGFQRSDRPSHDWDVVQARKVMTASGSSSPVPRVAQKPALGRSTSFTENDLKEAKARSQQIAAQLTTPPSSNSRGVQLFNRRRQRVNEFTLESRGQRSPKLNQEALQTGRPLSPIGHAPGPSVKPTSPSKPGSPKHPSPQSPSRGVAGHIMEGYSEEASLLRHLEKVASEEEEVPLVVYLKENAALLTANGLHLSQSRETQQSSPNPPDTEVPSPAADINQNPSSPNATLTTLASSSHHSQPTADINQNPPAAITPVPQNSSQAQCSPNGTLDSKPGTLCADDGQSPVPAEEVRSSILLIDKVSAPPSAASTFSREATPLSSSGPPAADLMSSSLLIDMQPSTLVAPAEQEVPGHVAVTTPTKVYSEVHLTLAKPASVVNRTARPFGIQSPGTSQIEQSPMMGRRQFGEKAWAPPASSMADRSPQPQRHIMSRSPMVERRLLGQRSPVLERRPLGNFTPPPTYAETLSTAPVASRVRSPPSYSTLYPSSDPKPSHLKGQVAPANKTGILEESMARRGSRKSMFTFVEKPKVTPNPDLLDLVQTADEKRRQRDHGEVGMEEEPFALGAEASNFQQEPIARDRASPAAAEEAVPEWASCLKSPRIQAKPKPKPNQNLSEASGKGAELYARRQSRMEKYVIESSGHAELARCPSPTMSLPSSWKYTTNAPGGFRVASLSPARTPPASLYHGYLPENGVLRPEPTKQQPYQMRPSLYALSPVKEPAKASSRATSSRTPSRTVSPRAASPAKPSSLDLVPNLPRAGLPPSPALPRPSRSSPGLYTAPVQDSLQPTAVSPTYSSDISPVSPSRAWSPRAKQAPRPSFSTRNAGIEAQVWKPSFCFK
UniProt Q9NR12: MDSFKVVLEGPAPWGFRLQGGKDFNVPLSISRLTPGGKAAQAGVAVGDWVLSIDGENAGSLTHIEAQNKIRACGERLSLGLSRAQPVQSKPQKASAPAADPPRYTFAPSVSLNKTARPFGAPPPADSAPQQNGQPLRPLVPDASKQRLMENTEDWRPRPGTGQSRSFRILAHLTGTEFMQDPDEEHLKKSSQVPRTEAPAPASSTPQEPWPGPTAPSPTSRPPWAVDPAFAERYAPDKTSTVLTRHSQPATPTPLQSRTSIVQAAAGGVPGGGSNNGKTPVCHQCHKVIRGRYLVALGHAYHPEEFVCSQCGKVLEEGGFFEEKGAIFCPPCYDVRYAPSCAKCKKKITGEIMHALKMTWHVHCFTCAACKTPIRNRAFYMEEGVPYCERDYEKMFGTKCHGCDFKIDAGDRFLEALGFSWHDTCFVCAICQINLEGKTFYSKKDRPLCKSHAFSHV
UniProt O88382: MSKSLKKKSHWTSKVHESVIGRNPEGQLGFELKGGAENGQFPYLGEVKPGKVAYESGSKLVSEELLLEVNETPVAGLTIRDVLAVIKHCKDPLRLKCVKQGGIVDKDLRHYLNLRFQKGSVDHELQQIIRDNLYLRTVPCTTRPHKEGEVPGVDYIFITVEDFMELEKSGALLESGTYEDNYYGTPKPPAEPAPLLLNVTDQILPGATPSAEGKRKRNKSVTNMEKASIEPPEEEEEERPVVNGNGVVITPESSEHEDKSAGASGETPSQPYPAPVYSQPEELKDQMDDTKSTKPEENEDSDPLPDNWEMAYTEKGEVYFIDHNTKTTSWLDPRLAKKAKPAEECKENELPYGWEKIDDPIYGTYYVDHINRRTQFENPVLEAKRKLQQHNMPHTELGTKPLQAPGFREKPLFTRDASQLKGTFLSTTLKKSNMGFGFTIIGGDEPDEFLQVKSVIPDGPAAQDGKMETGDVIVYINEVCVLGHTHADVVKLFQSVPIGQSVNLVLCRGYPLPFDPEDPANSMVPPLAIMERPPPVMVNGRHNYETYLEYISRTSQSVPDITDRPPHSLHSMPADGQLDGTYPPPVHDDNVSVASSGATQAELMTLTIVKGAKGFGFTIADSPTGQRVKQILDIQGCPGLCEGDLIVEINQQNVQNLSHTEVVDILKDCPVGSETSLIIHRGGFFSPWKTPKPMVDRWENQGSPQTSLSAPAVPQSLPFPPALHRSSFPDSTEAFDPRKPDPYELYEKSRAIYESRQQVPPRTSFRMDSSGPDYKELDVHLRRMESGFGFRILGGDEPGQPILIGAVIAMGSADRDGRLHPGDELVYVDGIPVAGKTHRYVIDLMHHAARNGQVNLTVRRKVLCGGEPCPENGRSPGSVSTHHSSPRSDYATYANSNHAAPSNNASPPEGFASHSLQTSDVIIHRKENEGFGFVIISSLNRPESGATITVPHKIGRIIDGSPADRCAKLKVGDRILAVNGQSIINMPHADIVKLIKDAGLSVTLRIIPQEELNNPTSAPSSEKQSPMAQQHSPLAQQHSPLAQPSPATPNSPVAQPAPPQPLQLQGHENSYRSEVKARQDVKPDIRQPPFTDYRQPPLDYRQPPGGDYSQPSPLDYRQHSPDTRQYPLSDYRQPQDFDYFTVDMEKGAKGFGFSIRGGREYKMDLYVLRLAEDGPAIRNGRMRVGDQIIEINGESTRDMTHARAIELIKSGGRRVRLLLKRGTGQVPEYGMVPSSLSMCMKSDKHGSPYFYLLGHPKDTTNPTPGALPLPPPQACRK
UniProt P35609: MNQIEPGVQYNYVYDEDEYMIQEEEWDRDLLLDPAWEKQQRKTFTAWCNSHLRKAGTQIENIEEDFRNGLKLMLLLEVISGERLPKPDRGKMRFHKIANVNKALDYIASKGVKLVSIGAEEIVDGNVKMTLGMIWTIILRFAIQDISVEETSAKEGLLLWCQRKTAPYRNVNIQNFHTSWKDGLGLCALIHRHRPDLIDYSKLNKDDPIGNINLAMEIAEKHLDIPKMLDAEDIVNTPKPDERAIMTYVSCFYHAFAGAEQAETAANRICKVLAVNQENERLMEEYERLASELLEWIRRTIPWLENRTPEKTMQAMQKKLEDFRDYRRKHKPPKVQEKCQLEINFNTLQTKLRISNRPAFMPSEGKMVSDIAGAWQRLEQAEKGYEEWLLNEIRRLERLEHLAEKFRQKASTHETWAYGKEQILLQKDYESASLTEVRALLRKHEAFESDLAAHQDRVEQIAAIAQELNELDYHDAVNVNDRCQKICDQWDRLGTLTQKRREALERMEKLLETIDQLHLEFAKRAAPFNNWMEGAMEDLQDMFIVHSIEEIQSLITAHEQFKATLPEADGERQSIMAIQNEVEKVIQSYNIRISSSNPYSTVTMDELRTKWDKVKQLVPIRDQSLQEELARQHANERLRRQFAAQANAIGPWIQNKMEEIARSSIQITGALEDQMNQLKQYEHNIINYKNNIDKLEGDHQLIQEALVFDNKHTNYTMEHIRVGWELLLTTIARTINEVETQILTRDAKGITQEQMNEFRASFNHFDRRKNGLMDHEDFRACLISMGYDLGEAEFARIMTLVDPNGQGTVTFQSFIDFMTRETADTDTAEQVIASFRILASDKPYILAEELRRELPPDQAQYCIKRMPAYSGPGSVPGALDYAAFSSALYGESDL
UniProt Q6RHR9: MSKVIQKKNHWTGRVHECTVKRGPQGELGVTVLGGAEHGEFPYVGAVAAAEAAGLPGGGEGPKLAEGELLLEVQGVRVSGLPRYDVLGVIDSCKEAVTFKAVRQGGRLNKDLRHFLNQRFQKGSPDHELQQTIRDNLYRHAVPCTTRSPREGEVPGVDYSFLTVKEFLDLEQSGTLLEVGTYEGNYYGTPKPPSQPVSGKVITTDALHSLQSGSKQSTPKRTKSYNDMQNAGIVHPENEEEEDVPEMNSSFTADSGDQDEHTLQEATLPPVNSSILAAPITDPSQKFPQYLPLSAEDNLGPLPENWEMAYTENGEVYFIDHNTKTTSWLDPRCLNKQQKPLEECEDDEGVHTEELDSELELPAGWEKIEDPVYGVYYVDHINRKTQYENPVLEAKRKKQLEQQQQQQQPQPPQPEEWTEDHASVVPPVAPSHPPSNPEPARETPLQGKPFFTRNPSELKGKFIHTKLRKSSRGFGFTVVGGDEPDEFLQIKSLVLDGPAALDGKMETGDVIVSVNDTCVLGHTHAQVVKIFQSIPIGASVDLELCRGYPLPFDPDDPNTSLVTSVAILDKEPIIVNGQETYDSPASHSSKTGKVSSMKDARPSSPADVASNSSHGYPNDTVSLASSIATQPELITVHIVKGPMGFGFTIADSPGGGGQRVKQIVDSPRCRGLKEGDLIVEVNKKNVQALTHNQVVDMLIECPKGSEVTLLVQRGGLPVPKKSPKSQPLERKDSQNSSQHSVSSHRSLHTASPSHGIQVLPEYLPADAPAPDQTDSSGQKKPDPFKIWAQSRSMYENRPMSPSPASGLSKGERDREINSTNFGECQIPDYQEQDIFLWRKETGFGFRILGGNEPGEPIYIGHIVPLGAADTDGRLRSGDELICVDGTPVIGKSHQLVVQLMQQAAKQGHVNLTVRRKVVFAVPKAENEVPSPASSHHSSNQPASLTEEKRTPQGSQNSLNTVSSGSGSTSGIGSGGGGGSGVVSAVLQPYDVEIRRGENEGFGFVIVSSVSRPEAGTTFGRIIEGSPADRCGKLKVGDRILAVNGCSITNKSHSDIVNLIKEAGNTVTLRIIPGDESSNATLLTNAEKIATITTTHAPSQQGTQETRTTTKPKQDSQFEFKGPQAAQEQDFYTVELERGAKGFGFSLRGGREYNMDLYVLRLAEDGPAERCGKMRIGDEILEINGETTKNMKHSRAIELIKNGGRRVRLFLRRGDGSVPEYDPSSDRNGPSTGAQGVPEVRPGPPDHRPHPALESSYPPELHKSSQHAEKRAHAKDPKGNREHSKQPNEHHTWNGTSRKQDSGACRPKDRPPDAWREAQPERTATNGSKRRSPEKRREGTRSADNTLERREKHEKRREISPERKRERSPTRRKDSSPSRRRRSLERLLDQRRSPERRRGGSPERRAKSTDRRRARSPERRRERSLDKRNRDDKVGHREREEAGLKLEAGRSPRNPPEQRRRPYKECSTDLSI

These are yes or no findings as the source states them, for the method shown. Binding calls can cover weak binding; strength is not graded here.

For one test, the target named is mRFP-synaptopodin (UniProt Q8CC35). Kind of test: relocalisation in cells (coexpression, fluorescence microscopy); COS-7 cells; localisation of the tagged prey expressed alone compared with coexpression with the bait; prey recruited to bait-positive internal structures.
A further test addresses BioID2-Pdlim7 (human) (UniProt Q9NR12). The test is described as above.

As for EGFP-Magi2 (from UniProt O88382 1-1277), the binding entry with mRFP-synaptopodin is given as “binds”. As for “EGFP-α-actinin-2 (from UniProt P35609 1-894)”, the binding result with mRFP-synaptopodin is given as “binds”. Regarding HA-Magi2 (from UniProt O88382), the binding entry with BioID2-Pdlim7 (human) was “binds”. Consider EGFP-Magi1 (from UniProt Q6RHR9 1-1471), for which the binding result with mRFP-synaptopodin was “binds”.
